At least one structure is not confirmed: it was looked up by name or label, or the drawing left a doubt.
Assay: Dynamic vapor sorption (DVS) moisture sorption analysis
Assay type: physicochemical
Description: The moisture sorption analysis (DVS) was performed using a ProUmid GmbH & Co. KG Vsorp Enhanced dynamic vapor sorption apparatus. The moisture profile was evaluated by monitoring vapor adsorption/desorption over the range of 0 to 90% relative humidity at 25° C. The sample weight equilibrium criteria were set at ≤0.010% change in 45 min with minimum and maximum time of acclimation at 50 min and 120 min, respectively. The moisture profile consisted of 2 cycles of vapor adsorption/desorption.

CC(=O)N1CCC(CN2CC[C@@H](Cc3cn(-c4ccc(F)cc4C(=O)N(C)C(C)C)c4cncc(C)c34)C2)CC1 [Compound 51a]
hygroscopicity (DVS change in mass plot) (0 to 90% relative humidity at 25° C.): hygroscopic | moisture adsorbed and desorbed, by mass on average (humidity range of 20-90% RH, 25° C.): up to 2.5%
